PubChem BioAssay AID1159578 – Peter MacCallum Cancer Centre, 2015

- Aim: 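Knock-downs that alter how fast lymphatic endothelial cells migrate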 (primary screen)
- Cell system: human lymphatic endothelial cells
- Reagent: siRNA pool against human genes, 40 nM
- Timing: 48 h after transfection
- Measured: 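Cells stained with dye and imaged after a scratch; covered wound area and nuclei counted, duplicates averaged, migration set against mock wells and turned into a robust z-score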
- Scale: migration robust z-score: higher = faster migration into the scratch; migration relative to mock: higher = more scratch area covered than mock; nuclei per well: higher = more cells in the well
- Active means: 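Pools averaging fewer than 3300 nuclei are never called; remaining pools count as changed when migration robust z lies outside -2 to 2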
- Meaning of the calls: active = migration changed; inactive = no migration change, or too few cells
In all, the deposit lists about 18,000 reagents; this is a random part of them. About 1,030 of them (5.7%) were called active. 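Inactive calls also include pools with fewer than 3300 nuclei, whose migration was not assessed.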 Raw values vary from plate to plate and are shown uncorrected.

The opening 7 entries, to show the layout:
target	PubChem SID	migration robust z-score	migration class with cell-count check	migration relative to mock	nuclei per well, duplicate mean	call
ZNF470	SID255365500	0.28	migration z between -2 and 2; enough cells	0.96	5277	inactive
YTHDC1	SID255361946	-1.29	migration z between -2 and 2; enough cells	0.55	6032	inactive
WIPI2	SID255356669	1.32	migration z between -2 and 2; enough cells	1.23	6244	inactive
MITD1	SID255362836	2.58	migration z above 2; enough cells	1.55	5671	active
TNRC6A	SID255357030	-1.44	migration z between -2 and 2; enough cells	0.51	5829	inactive
RPS28	SID255352237	-1.68	migration z between -2 and 2; enough cells	0.45	4211	inactive
HACL2	SID255355509	-0.47	migration z between -2 and 2; enough cells	0.72	3936	inactive

Main list, from the start:
target	PubChem SID	migration robust z-score	migration class with cell-count check	migration relative to mock	nuclei per well, duplicate mean	call
ZNF470	SID255365500	0.28	migration z between -2 and 2; enough cells	0.96	5277	inactive
YTHDC1	SID255361946	-1.29	migration z between -2 and 2; enough cells	0.55	6032	inactive
WIPI2	SID255356669	1.32	migration z between -2 and 2; enough cells	1.23	6244	inactive
MITD1	SID255362836	2.58	migration z above 2; enough cells	1.55	5671	active
TNRC6A	SID255357030	-1.44	migration z between -2 and 2; enough cells	0.51	5829	inactive
RPS28	SID255352237	-1.68	migration z between -2 and 2; enough cells	0.45	4211	inactive
HACL2	SID255355509	-0.47	migration z between -2 and 2; enough cells	0.72	3936	inactive
KRT34	SID255350700	0.33	migration z between -2 and 2; enough cells	0.97	6404	inactive
BTBD1	SID255357911	-0.5	migration z between -2 and 2; enough cells	0.75	7166	inactive
NMUR2	SID255359169	-0.1	migration z between -2 and 2; enough cells	0.78	5064	inactive
ACTR3B	SID255359323	2.5	migration z above 2; enough cells	1.51	5944	active
KRT5	SID255350681	2.29	migration z above 2; enough cells	1.48	6865	active
IKBKG	SID255353611	-0.83	migration z between -2 and 2; enough cells	0.64	5456	inactive
DPH3	SID255364849	-0.14	migration z between -2 and 2; enough cells	0.85	6358	inactive
NPIPB7	SID255365907	-0.4	migration z between -2 and 2; enough cells	0.78	5492	inactive
HCST	SID255355403	-0.75	migration z between -2 and 2; enough cells	0.69	5734	inactive
CAVIN4	SID255365218	-0.46	migration z between -2 and 2; enough cells	0.76	6474	inactive
TXNL1	SID255354211	-0.39	migration z between -2 and 2; enough cells	0.73	6246	inactive
NR5A2	SID255349757	-0.29	migration z between -2 and 2; enough cells	0.75	5520	inactive
TCP11L2	SID255364496	0.25	migration z between -2 and 2; enough cells	0.94	4476	inactive
IL21	SID255359669	0.48	migration z between -2 and 2; enough cells	1.01	5288	inactive
SEPTIN4	SID255351671	-2.54	migration z below -2; enough cells	0.32	3942	active
SEPTIN4	SID255364735	1.52	migration z between -2 and 2; enough cells	1.28	5676	inactive
THNSL1	SID255360552	0.08	migration z between -2 and 2; enough cells	0.82	5714	inactive
FERMT3	SID255361069	2.92	migration z above 2; enough cells	1.64	7426	active
NRN1L	SID255362596	0.46	migration z between -2 and 2; enough cells	1	4774	inactive
BPTF	SID255349624	-1.29	migration z between -2 and 2; enough cells	0.55	5936	inactive
CTF1	SID255349156	0.31	migration z between -2 and 2; enough cells	0.86	4976	inactive
LOC401052 (retired record)	SID255365770	0.04	migration z between -2 and 2; enough cells	0.89	5685	inactive
LAMTOR2	SID255357074	-0.27	migration z between -2 and 2; enough cells	0.82	5515	inactive
XCL2	SID255352711	0.86	migration z between -2 and 2; enough cells	1.12	5060	inactive
NPEPPS	SID255354340	-0.52	migration z between -2 and 2; enough cells	0.7	5574	inactive
ATP8A1	SID255355044	0.1	migration z between -2 and 2; enough cells	0.83	7028	inactive
PRDM13	SID255359683	-2.5	under 3300 nuclei; migration not judged	0.24	2627	inactive
RSKR	SID255362640	-1.12	migration z between -2 and 2; enough cells	0.59	4996	inactive
OR2H2	SID255353343	-1	migration z between -2 and 2; enough cells	0.62	5631	inactive
IFT52	SID255357473	-1.26	migration z between -2 and 2; enough cells	0.56	5202	inactive
WFIKKN2	SID255362637	-1.06	migration z between -2 and 2; enough cells	0.61	6088	inactive
CENPT	SID255360675	0.39	migration z between -2 and 2; enough cells	0.98	6978	inactive
DFFA	SID255349288	-1.09	migration z between -2 and 2; enough cells	0.6	6410	inactive
OR6C1	SID255365641	-0.32	migration z between -2 and 2; enough cells	0.8	6076	inactive
ARMCX5	SID255360037	-0.33	migration z between -2 and 2; enough cells	0.8	6692	inactive
RCL1	SID255354868	0.42	migration z between -2 and 2; enough cells	0.88	5537	inactive
CCDC187	SID255365721	-0.05	migration z between -2 and 2; enough cells	0.88	4411	inactive
EHBP1	SID255356142	-0.48	migration z between -2 and 2; enough cells	0.76	6158	inactive
CPAP	SID255358900	-0.94	migration z between -2 and 2; enough cells	0.62	4144	inactive
METTL22	SID255360213	-0.94	migration z between -2 and 2; enough cells	0.64	3898	inactive
AGTPBP1	SID255356134	-0.24	migration z between -2 and 2; enough cells	0.76	5294	inactive
TRIB2	SID255357070	-5.55	under 3300 nuclei; migration not judged	-0.26	1421	inactive
MUC1	SID255351070	-0.2	migration z between -2 and 2; enough cells	0.83	5564	inactive
COPS2	SID255354185	0.1	migration z between -2 and 2; enough cells	0.82	5480	inactive
CYP2A7	SID255349197	-0.57	migration z between -2 and 2; enough cells	0.7	6096	inactive
MTMR3	SID255353904	-0.78	migration z between -2 and 2; enough cells	0.66	5816	inactive
BAGE	SID255348501	-1.59	migration z between -2 and 2; enough cells	0.47	6256	inactive
TEX47	SID255364182	0.52	migration z between -2 and 2; enough cells	1.02	5492	inactive
ZNG1C	SID255365985	0.74	migration z between -2 and 2; enough cells	1.08	6265	inactive
FCRLB	SID255362777	-0.02	migration z between -2 and 2; enough cells	0.88	5930	inactive
